Laboratory results published in PubChem BioAssay AID504444 (National Center for Advancing Translational Sciences (NCATS), 2011).
Values joined by “and” are separate entries in the source; they are usually repeats but may differ in a detail not shown here. Identical values can stand only once. Screen size: about 360,000 compounds; about 7,500 (2.1%) were called active. The shares of active, inactive and inconclusive entries below differ from those in the screen. The call rests on the fitted dose curve; in most records, active means well fitted inhibition curve with a large enough effect; inconclusive means small, poorly fitted or top-dose-only effect, or effect the other way; inactive means flat fitted curve, though single readings scatter. A potency beside an inconclusive call is a rough fit, not a confirmed value.

Experiment: Nrf2 qHTS screen for inhibitors; further: nearly all actives have a fitted effect of over 60% in size
Conditions: A549 ARE-Fluc reporter, luciferase luminescence, 18-24 h; activity change, negative = inhibition: at 46 µM (top of the series)
Procedure, shortened: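 Quantitative HTS in A549 cells stably bearing an antioxidant response element-firefly luciferase construct. Inhibition of Nrf2-driven transcription was scored by luminescence after 18-24 h of compound exposure at 37 °C.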
On the % scale 0 is the no-effect control and ±100 the full control effect; potency means the concentration at half of the fitted maximal effect.

For Cc1ccc(/C=C2\SC(=O)N(CCC(=O)N3CCN(C)CC3)C2=O)cc1, which Potency is on record?
The Potency was inconclusive: 29.1 µM [activator, single point].

Which Potency does the source give for O=C1NCCN/C1=C\C(=O)c1ccc(Br)cc1 here?
Its Potency is inconclusive: 1.46 µM [activator, full curve, poor fit].

For COc1ccc(COC(=O)C2=C(C)NC(=O)NC2c2ccc(F)cc2)cc1 (stereo not drawn), which Potency is on record?
The Potency was inconclusive: 20.6 µM [falling, partial curve, poor fit].

With CNC(=O)C1=NCCCc2cc(OC)c(OC)cc21 as the compound, how does the “activity change, negative = inhibition” value read?
Its value is inactive: 5.66%.

For Cc1cccc(C(C)C)c1NC(=O)CN1C(=O)NC2(CCc3ccccc32)C1=O (stereo not drawn), which “activity change, negative = inhibition” value is on record?
Its value is inactive: 2.96%.

For O=C(Nc1ccc(NC(=O)c2cccs2)cc1)c1ccc(Br)cc1, which “activity change, negative = inhibition” value is on record?
Its value is inactive: 19.7%.

For O=C(CSc1nc2ccccc2o1)Nc1nc2c(s1)CCCC2, which Potency is on record?
The Potency was inconclusive: 23.1 µM [falling, partial curve, poor fit].

For Cc1cnn(C(=O)c2cc(-c3ccccc3)nc3ccccc23)c1, which “activity change, negative = inhibition” value is on record?
The value was inactive: 1.57%.

With Brc1ccc2nc(N3CCCC3)sc2c1 as the compound, how does the Potency read?
The Potency was inconclusive: 4.61 µM [activator, partial curve].

For Cc1cc(Nc2ccc(Cl)cc2)n(-c2ccccc2)n1, which Potency is on record?
The Potency was inconclusive: 5.8 µM [activator, full curve].

For COc1cc(OC)c(C(=O)O/N=C(\N)c2ccc(C)cc2)cc1OC, which Potency is on record?
Its Potency is inconclusive: 29.1 µM [activator, single point].

With O=C(OCc1ccccc1Cl)c1ccc(-c2nnn(Cc3ccccc3)n2)cc1 as the compound, how does the “activity change, negative = inhibition” value read?
The value was inactive: 9.6%.

For COc1ccccc1CCC(=O)Nc1ccc(OC)c(S(=O)(=O)N2CCCCC2)c1, which Potency is on record?
Its Potency is inconclusive: 16.4 µM [falling, partial curve, poor fit].

With COc1cc2c(cc1OC)C(C(=O)N1CCN(c3ccccc3)CC1)C(c1cccs1)N(C)C2=O (stereo not drawn) as the compound, how does the “activity change, negative = inhibition” value read?
Its value is inactive: 15.2%.

Which Potency does the source give for O=C(Nc1cc(Cl)ccc1Cl)c1cc(-c2ccco2)on1 here?
The Potency was inconclusive: 2.06 µM [activator, partial curve, poor fit].

For CCc1ccccc1N(CC)C(=O)c1cc2c(s1)-c1ccccc1OC2, which Potency is on record?
The Potency was inconclusive: 29.1 µM [falling, single point].

For CN(CCc1ccccn1)C(=O)CCC1CCCN(C(=O)CN2CCCCCC2)C1 (stereo not drawn), which “activity change, negative = inhibition” value is on record?
The value was inactive: 2.07%.

With CCOC(=O)C1(CCCc2ccccc2)CCN(Cc2cnn(C)c2)CC1 as the compound, how does the Potency read?
The Potency was inconclusive: 13 µM [activator, partial curve, poor fit].

Which Potency does the source give for O=C(NCCOc1ccccc1)c1ccccc1Cl here?
The Potency was inconclusive: 1.46 µM [activator, full curve].

Which Potency does the source give for CCN1CCS/C1=C\C=C\C1=[N+](CC)CCS1 here?
The Potency was active: 1.64 µM.

For Cc1ccc2oc3c(SCc4nc5ccccc5[nH]4)nc(C)nc3c2c1, which Potency is on record?
Its Potency is inconclusive: 32.6 µM [falling, single point].

With CCc1ccc(-n2nc(CO)c(C(=O)NCc3ccccn3)n2)cc1 as the compound, how does the Potency read?
The Potency was inconclusive: 13 µM [activator, single point].

For CCOc1ccc(NC(=O)Cn2nc(-c3ccccc3Cl)n(CC)c2=S)cc1, which Potency is on record?
Its Potency is inconclusive: 20.6 µM [falling, single point].

For Cc1cc(NC(=O)CSc2cn(CCNC(=O)c3ccc(Cl)cc3)c3ccccc23)no1, which Potency is on record?
Its Potency is inconclusive: 1.16 µM [falling, full curve, poor fit].

Which Potency does the source give for Cc1ccccc1C(=O)N/N=C/c1ccc([N+](=O)[O-])s1 here?
The Potency was active: 10.3 µM.

With CCC(=O)Nc1sc2c(c1C#N)CCC2 as the compound, how does the “activity change, negative = inhibition” value read?
Its value is inactive: 10.4%.

For CCCn1nc(C(=O)Nc2ccc3nc(N4CCOCC4)sc3c2)ccc1=O, which Potency is on record?
The Potency was active: 20.6 µM.

With Cc1oc2ncnc(N3CCCCC3)c2c1C(=O)NCC1CCN(Cc2ccc(F)cc2)CC1 as the compound, how does the “activity change, negative = inhibition” value read?
The value was inactive: 15.4%.

With CCOC(=O)Cn1c(=O)cc(-c2ccccc2)c2c(C)nn(C)c21 as the compound, how does the Potency read?
The Potency was inconclusive: 29.1 µM [activator, single point].

Which Potency does the source give for Cc1ccc(NC(=O)Cc2ccc(Cl)cc2)cc1S(=O)(=O)N1CCCCCC1 here?
Its Potency is inconclusive: 23.1 µM [falling, single point].

For O=C(Nc1cccc(Cl)c1)Nc1ccnc(-c2cccnc2)n1, which Potency is on record?
Its Potency is inconclusive: 23.1 µM [falling, single point].

Which “activity change, negative = inhibition” value does the source give for CCC(=O)Nc1ccc2nc(C3CC3)n(Cc3ccccc3)c(=O)c2c1 here?
Its value is inactive: 7.75%.

Which Potency does the source give for C[C@H]1CN([C@@H](C)CO)C(=O)Cc2cc(NC(=O)Nc3ccccc3)ccc2O[C@H]1CN(C)Cc1ccccc1 here?
The Potency was inconclusive: 16.4 µM [activator, single point].

For CC(=O)NCc1ccc(-c2csc(NC(=O)CCc3nc4ccccc4c(=O)[nH]3)n2)s1, which Potency is on record?
Its Potency is inconclusive: 3.26 µM [falling, partial curve, poor fit].

Which Potency does the source give for Cc1ccn2cc(CSc3ccccc3)nc2c1 here?
Its Potency is inconclusive: 2.06 µM [activator, full curve].

With Cc1noc(/C=C/c2cccnc2)c1[N+](=O)[O-] as the compound, how does the Potency read?
Its Potency is active: 18.4 µM.

For CN(CCc1ccccc1)C(=O)c1ccc(NC(=O)Cc2ccc(NC(=O)C3CCCN(C(=O)CCc4ccccc4)C3)cc2)cc1 (stereo not drawn), which Potency is on record?
Its Potency is active: 1.3 µM.

With O=C(c1ccc(N2CCCCC2)c([N+](=O)[O-])c1)N(Cc1ccccc1)c1ccccn1 as the compound, how does the Potency read?
The Potency was active: 16.4 µM.

With COc1cccc(NC(=O)c2oc3ccccc3c2NC(=O)C(C)(C)C)c1 as the compound, how does the Potency read?
Its Potency is active: 9.2 µM.

With O=C(Nc1cc(Cl)cc(Cl)c1)c1cccc(OC(F)F)c1 as the compound, how does the Potency read?
The Potency was inconclusive: 29.1 µM [falling, single point].

Which Potency does the source give for N=c1c2c3c(sc2ncn1CCN1CCOCC1)CCCCC3 here?
The Potency was inconclusive: 3.26 µM [falling, full curve].

For COCCNC(=O)c1c(NC(=O)Cc2coc3cc(C)ccc23)sc2c1CCCC2, which Potency is on record?
The Potency was inconclusive: 6.51 µM [falling, partial curve, poor fit].

With Cc1ccc(S(=O)(=O)N2[C@@H](c3ccc(C(C)(C)C)cc3)C(C(=O)O)=CC[C@H]2c2ccc(Cl)c(Cl)c2)cc1 as the compound, how does the “activity change, negative = inhibition” value read?
Its value is inactive: -10.4%.

For Cc1ccc(NC(=O)CN(C)C(=O)c2cc(-c3ccco3)nc3ccccc23)cc1, which Potency is on record?
The Potency was inconclusive: 20.6 µM [falling, partial curve, poor fit].

Which Potency does the source give for Cc1cc(NC(=O)C2CCN(S(=O)(=O)Cc3ccccc3)CC2)ccc1-n1cnnn1 here?
Its Potency is inconclusive: 10.3 µM [falling, partial curve, poor fit].

With COc1ccc(CC(=O)NCc2ccc(-n3cccc3)cc2)cc1OC as the compound, how does the Potency read?
The Potency was inconclusive: 2.06 µM [falling, partial curve].

With CCOC(=O)c1cn(CC(=O)Nc2cccc(Cl)c2C)nn1 as the compound, how does the Potency read?
Its Potency is “inactive and inconclusive: 580 nM [activator, full curve, poor fit]”.

For COc1cccc2c(=O)cc(C)n(CC(=O)Nc3ccccc3C)c12, which Potency is on record?
The Potency was inconclusive: 10.3 µM [falling, partial curve, poor fit].

For COc1ccc(-n2ncc(C(=O)N3CCN(c4ccccn4)CC3)c2C2CCN(C(=O)OC(C)(C)C)CC2)cc1, which “activity change, negative = inhibition” value is on record?
Its value is inactive: -1.23%.

With Cc1ccc(SCc2nc3ccccc3n2CC(=O)Nc2ccc(Cl)cc2)cc1 as the compound, how does the Potency read?
The Potency was inconclusive: 29.1 µM [falling, single point].

For CCOC(=O)C1CCN(C(=S)NC(=O)c2cccs2)CC1, which Potency is on record?
Its Potency is inconclusive: 29.1 µM [activator, partial curve, poor fit].

Which activity change, negative = inhibition does the source give for CC(Sc1oc(-c2ccco2)nc1S(=O)(=O)c1ccc(Br)cc1)c1ccccc1 (stereo not drawn) here?
Its activity change, negative = inhibition is inactive: 8.26% [at 9.27 µM].

With CCOc1ccccc1NC(=O)c1cccc(NC(=O)C2CCCC2)c1 as the compound, how does the Potency read?
The Potency was inconclusive: 7.31 µM [falling, partial curve].

For O=C(CN1CCCc2ccccc21)N/N=C/c1c(O)ccc2ccccc12, which Potency is on record?
The Potency was inconclusive: 23.1 µM [falling, partial curve].

Which Potency does the source give for Cc1nnc(-c2ccco2)c2cn(-c3cccc(Br)c3)nc12 here?
The Potency was inconclusive: 11.6 µM [falling, partial curve].

For Cc1cccc(N(CC(=O)Nc2ccc(F)cc2)S(C)(=O)=O)c1, which Potency is on record?
Its Potency is inconclusive: 6.51 µM [falling, partial curve, poor fit].

With COCCCNC(=O)c1ccccc1NS(C)(=O)=O as the compound, how does the “activity change, negative = inhibition” value read?
Its value is inactive: 2.98%.

With COc1ccc(/C=C2\C(=O)OCc3cc(OC)c(OC)cc32)cc1OC as the compound, how does the Potency read?
Its Potency is inconclusive: 20.6 µM [falling, partial curve, poor fit].

With Cc1ccc(S(=O)(=O)N(C)CC(=O)N2CCCc3ccccc32)cc1 as the compound, how does the “activity change, negative = inhibition” value read?
Its value is inactive: -23.8%.

With O=C1O/C(=C\c2ccccc2)c2ccccc21 as the compound, how does the “activity change, negative = inhibition” value read?
Its value is inactive: 1.91%.

With COc1ccccc1C(=O)NNC(=O)c1cccc(Br)c1 as the compound, how does the Potency read?
Its Potency is inconclusive: 2.91 µM [activator, full curve].

For O=C(NC1CCCCC1)N1CCN(c2nc(-c3ccccc3)cs2)CC1, which Potency is on record?
The Potency was inconclusive: 18.4 µM [falling, single point].

With CCC(=O)Nc1cc2nn(-c3ccccc3)nc2cc1Cl as the compound, how does the Potency read?
The Potency was inconclusive: 0.326 µM [activator, full curve, poor fit].

Which Potency does the source give for O=C(NNC1=C(C(=O)C(F)(F)F)CCC1)c1cccc(Cl)c1 here?
Its Potency is inconclusive: 29.1 µM [falling, single point].

Which Potency does the source give for CC(=O)Nc1ccc(/C=C/c2ccc3c([N+](=O)[O-])cccc3n2)cc1 here?
Its Potency is inconclusive: 4.61 µM [activator, full curve].

Which Potency does the source give for Cn1nc(-c2ccc(OCC(=O)Nc3ccccc3)cc2)c2ccccc2c1=O here?
Its Potency is inconclusive: 20.6 µM [falling, single point] and inconclusive: 29.1 µM [falling, single point].

Which Potency does the source give for O=C(CCC(=O)N1CCN(c2ccc(F)cc2)CC1)N1CCN(c2ccc(F)cc2)CC1 here?
Its Potency is inconclusive: 16.4 µM [falling, partial curve, poor fit].

With COc1ccc2cc(S(=O)(=O)N3CCCCCC3)ccc2c1 as the compound, how does the Potency read?
Its Potency is inconclusive: 18.4 µM [falling, partial curve].
